# Test results: the supplement of paper PMC8728848
# The list shows a part of the results.
# B1: PX9961Q-bfa-504-27-504 (Bacteroides fragilis) (protein)
# chain: NDWLDRKPADGIPSEDAITNYNDALTARTGMYDGIQGNSNATSYYGARMFYYGDVRADDMQARTQGMRSSSCYEMLYTVDDAPNMWNIPYNVIRRANRLIEAINEKKVTDATEAQIGKIYSEALVVRALVHFDLVRIYGMPYTADNGASLGVPVIVKPLERNDLPSRNTVAEVYTQVITDLTDAINSGYLAKDQTPGYINEWAAKALLTRVYLTKGDNENALKVAEDIITNSPYKLWTNEEYVNAWYKSNGAHTNEMIFEVVNASNDDWTDRNGIAYLLNENGYADAIVTKSFMNMLSQDPKDVRIGMVLPAQYDKDLQEEYGDAKIFINKFPADKDDVGEMRLNNLPLLRLSEVYLSAAEAAAKLGGHQDKAAKYLNEIVQRANPEAKAISEADATVERIILERRKEMIGEGQRYFDALRNNETIVRYKDEGDKGYHYSLIKESQSFDRTYFRAILPIPVDETNVNPNLRAQQNPGY
# What was measured:
# Test in all cases: glycan array binding signal (z-score within array); higher = stronger binding
# Conditions in all cases: glycan notation: IUPAC condensed, linker removed
# [1] = biological target: Neu5Ac(a2-6)Gal(b1-4)GlcNAc(b1-3)Gal(b1-4)GlcNAc(b1-3)GalNAc
# Procedure, shortened: (§1)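 The binding signal is a Z-score computed within each array. Data were drawn from 3228 arrays in the Consortium for Functional Glycomics database, restricted to those with a known protein sequence. Scores were averaged over arrays of the same protein sequence at different concentrations or buffers, and over linkers, and negative values can be taken as non-binding.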
# [2] = biological target: Neu5Ac(a2-6)Gal(b1-4)GlcNAc(b1-3)Gal(b1-4)GlcNAc(b1-3)[Neu5Ac(a2-6)Gal(b1-4)GlcNAc(b1-3)Gal(b1-4)GlcNAc(b1-6)]GalNAc
# Procedure, shortened: as §1
# [3] = biological target: Neu5Ac(a2-6)Gal(b1-4)GlcNAc(b1-3)Gal(b1-4)GlcNAc(b1-6)[Gal(b1-3)]GalNAc
# Procedure, shortened: as §1
# [4] = biological target: Neu5Ac(a2-6)Gal(b1-4)GlcNAc(b1-3)Gal(b1-4)[Fuc(a1-3)]GlcNAc(b1-3)Gal(b1-4)[Fuc(a1-3)]GlcNAc
# Procedure, shortened: as §1
# [5] = biological target: Neu5Ac(a2-6)Gal(b1-4)GlcNAc(b1-3)GalNAc
# Procedure, shortened: as §1
# [6] = biological target: Neu5Ac(a2-6)Gal(b1-4)GlcNAc(b1-3)[Neu5Ac(a2-6)Gal(b1-4)GlcNAc(b1-6)]GalNAc
# Procedure, shortened: as §1
# [7] = biological target: Neu5Ac(a2-6)Gal(b1-4)GlcNAc(b1-6)GalNAc
# Procedure, shortened: as §1
# [8] = biological target: Neu5Ac(a2-6)Gal(b1-4)GlcNAc(b1-6)[Gal(b1-3)GlcNAc(b1-3)]Gal(b1-4)Glc
# Procedure, shortened: as §1
# [9] = biological target: Neu5Ac(a2-6)Gal(b1-4)GlcNAc(b1-6)[Gal(b1-3)]GalNAc
# Procedure, shortened: as §1
# [10] = biological target: Neu5Ac(a2-6)Gal(b1-4)GlcNAc6S
# Procedure, shortened: as §1
# Neu5Ac(a2-6)GalNAc = biological target: Neu5Ac(a2-6)GalNAc
# Procedure, shortened: as §1
# [11] = biological target: Neu5Ac(a2-6)GalNAc(b1-4)GlcNAc
# Procedure, shortened: as §1
# [12] = biological target: Neu5Ac(a2-6)GalNAc(b1-4)GlcNAc6S
# Procedure, shortened: as §1
# [13] = biological target: Neu5Ac(a2-6)GlcNAc(b1-4)GlcNAc
# Procedure, shortened: as §1
# [14] = biological target: Neu5Ac(a2-6)GlcNAc(b1-4)GlcNAc(b1-4)GlcNAc
# Procedure, shortened: as §1
# Neu5Ac(a2-8)Neu5Ac = biological target: Neu5Ac(a2-8)Neu5Ac
# Procedure, shortened: as §1
# [15] = biological target: Neu5Ac(a2-8)Neu5Ac(a2-3)Gal(b1-3)GalNAc(b1-4)[Neu5Ac(a2-3)]Gal(b1-4)Glc
# Procedure, shortened: as §1
# [16] = biological target: Neu5Ac(a2-8)Neu5Ac(a2-3)Gal(b1-3)GalNAc(b1-4)[Neu5Ac(a2-8)Neu5Ac(a2-3)]Gal(b1-4)Glc
# Procedure, shortened: as §1
# [17] = biological target: Neu5Ac(a2-8)Neu5Ac(a2-3)Gal(b1-4)Glc
# Procedure, shortened: as §1
# [18] = biological target: Neu5Ac(a2-8)Neu5Ac(a2-3)Gal(b1-4)GlcNAc
# Procedure, shortened: as §1
# [19] = biological target: Neu5Ac(a2-8)Neu5Ac(a2-3)[Gal(b1-3)GalNAc(b1-4)]Gal(b1-4)Glc
# Procedure, shortened: as §1
# [20] = biological target: Neu5Ac(a2-8)Neu5Ac(a2-3)[GalNAc(b1-4)]Gal(b1-4)Glc
# Procedure, shortened: as §1
# [21] = biological target: Neu5Ac(a2-8)Neu5Ac(a2-8)Neu5Ac
# Procedure, shortened: as §1
# [22] = biological target: Neu5Ac(a2-8)Neu5Ac(a2-8)Neu5Ac(a2-3)Gal(b1-4)Glc
# Procedure, shortened: as §1
# [23] = biological target: Neu5Ac(a2-8)Neu5Ac(a2-8)Neu5Ac(a2-3)[Gal(b1-3)GalNAc(b1-4)]Gal(b1-4)Glc
# Procedure, shortened: as §1
# [24] = biological target: Neu5Ac(a2-8)Neu5Ac(a2-8)Neu5Ac(a2-3)[GalNAc(b1-4)]Gal(b1-4)Glc
# Procedure, shortened: as §1
# [25] = biological target: Neu5Ac(a2-8)Neu5Ac(a2-8)Neu5Ac(a2-8)Neu5Ac(a2-3)[GalNAc(b1-4)]Gal(b1-4)Glc
# Procedure, shortened: as §1
# [26] = biological target: Neu5Ac(a2-8)Neu5Gc(a2-3)Gal(b1-4)GlcNAc
# Procedure, shortened: as §1
# [27] = biological target: Neu5Ac(b2-6)Gal(b1-4)GlcNAc
# Procedure, shortened: as §1
# Neu5Ac(b2-6)GalNAc = biological target: Neu5Ac(b2-6)GalNAc
# Procedure, shortened: as §1
# [28] = biological target: Neu5Ac9Ac(a2-3)Gal(b1-3)GlcNAc
# Procedure, shortened: as §1
# [29] = biological target: Neu5Ac9Ac(a2-3)Gal(b1-4)GlcNAc
# Procedure, shortened: as §1
# [30] = biological target: Neu5Ac9Ac(a2-6)Gal(b1-4)GlcNAc
# Procedure, shortened: as §1
# [31] = biological target: Neu5Gc(a2-3)Gal(b1-3)GlcNAc
# Procedure, shortened: as §1
# [32] = biological target: Neu5Gc(a2-3)Gal(b1-3)[Fuc(a1-4)]GlcNAc
# Procedure, shortened: as §1
# Neu5Gc(a2-3)Gal(b1-4)Glc = biological target: Neu5Gc(a2-3)Gal(b1-4)Glc
# Procedure, shortened: as §1
# [33] = biological target: Neu5Gc(a2-3)Gal(b1-4)GlcNAc
# Procedure, shortened: as §1
# [34] = biological target: Neu5Gc(a2-3)Gal(b1-4)GlcNAc(b1-3)Gal(b1-4)GlcNAc(b1-2)Man(a1-3)[Neu5Gc(a2-3)Gal(b1-4)GlcNAc(b1-3)Gal(b1-4)GlcNAc(b1-2)Man(a1-6)]Man(b1-4)GlcNAc(b1-4)GlcNAc
# Procedure, shortened: as §1
# [35] = biological target: Neu5Gc(a2-3)Gal(b1-4)[Fuc(a1-3)]GlcNAc
# Procedure, shortened: as §1
# [36] = biological target: Neu5Gc(a2-6)Gal(b1-4)GlcNAc
# Procedure, shortened: as §1
# Neu5Gc(a2-6)GalNAc = biological target: Neu5Gc(a2-6)GalNAc
# Procedure, shortened: as §1
# [37] = biological target: Neu5Gc(a2-8)Neu5Ac(a2-3)Gal(b1-4)GlcNAc
# Procedure, shortened: as §1
# [38] = biological target: Neu5Gc(a2-8)Neu5Gc(a2-3)Gal(b1-4)GlcNAc
# Procedure, shortened: as §1
# [39] = biological target: Neu5Gc(a2-8)Neu5Gc(a2-3)Gal(b1-4)GlcNAc(b1-3)Gal(b1-4)GlcNAc
# Procedure, shortened: as §1
# [40] = biological target: Neu5Gc(a2-8)Neu5Gc(a2-6)Gal(b1-4)GlcNAc
# Procedure, shortened: as §1
# [41] = biological target: Neu5Gc(b2-6)Gal(b1-4)GlcNAc
# Procedure, shortened: as §1
binder,measurement,setting,value
B1,glycan array binding signal (z-score),[1],-0.164
same,glycan array binding signal (z-score),[2],-0.372
same,glycan array binding signal (z-score),[3],-0.24
same,glycan array binding signal (z-score),[4],0.703
same,glycan array binding signal (z-score),[5],-0.107
same,glycan array binding signal (z-score),[6],-0.507
same,glycan array binding signal (z-score),[7],0.333
same,glycan array binding signal (z-score),[8],-0.328
same,glycan array binding signal (z-score),[9],-0.211
same,glycan array binding signal (z-score),[10],1.55
same,glycan array binding signal (z-score),Neu5Ac(a2-6)GalNAc,-0.776
same,glycan array binding signal (z-score),[11],0.179
same,glycan array binding signal (z-score),[12],-0.019
same,glycan array binding signal (z-score),[13],-1.06
same,glycan array binding signal (z-score),[14],0.064
same,glycan array binding signal (z-score),Neu5Ac(a2-8)Neu5Ac,0.603
same,glycan array binding signal (z-score),[15],-0.67
same,glycan array binding signal (z-score),[16],-0.512
same,glycan array binding signal (z-score),[17],-0.27
same,glycan array binding signal (z-score),[18],-0.447
same,glycan array binding signal (z-score),[19],-0.389
same,glycan array binding signal (z-score),[20],0.19
same,glycan array binding signal (z-score),[21],-0.412
same,glycan array binding signal (z-score),[22],0.117
same,glycan array binding signal (z-score),[23],1.09
same,glycan array binding signal (z-score),[24],-0.456
same,glycan array binding signal (z-score),[25],0.263
same,glycan array binding signal (z-score),[26],1.29
same,glycan array binding signal (z-score),[27],0.013
same,glycan array binding signal (z-score),Neu5Ac(b2-6)GalNAc,0.549
same,glycan array binding signal (z-score),[28],-0.653
same,glycan array binding signal (z-score),[29],0.166
same,glycan array binding signal (z-score),[30],-0.27
same,glycan array binding signal (z-score),[31],-0.666
same,glycan array binding signal (z-score),[32],-0.742
same,glycan array binding signal (z-score),Neu5Gc(a2-3)Gal(b1-4)Glc,0.407
same,glycan array binding signal (z-score),[33],-0.081
same,glycan array binding signal (z-score),[34],-0.078
same,glycan array binding signal (z-score),[35],-0.7
same,glycan array binding signal (z-score),[36],-0.424
same,glycan array binding signal (z-score),Neu5Gc(a2-6)GalNAc,0.187
same,glycan array binding signal (z-score),[37],-0.076
same,glycan array binding signal (z-score),[38],-0.726
same,glycan array binding signal (z-score),[39],-1.02
same,glycan array binding signal (z-score),[40],-0.292
same,glycan array binding signal (z-score),[41],-0.136

# Reformatted: entries from further up
binder | measurement | setting | value
B1 | glycan array binding signal (z-score) | [24] | -0.456
same | glycan array binding signal (z-score) | [25] | 0.263
